The values below come from PubChem BioAssay AID1487 (National Center for Advancing Translational Sciences (NCATS), 2009).

This experiment is described as follows: qHTS Assay for Modulators of Lamin A Splicing. The conditions noted are these: HeLa LMNA splicing GFP/RFP minigene ratio, 48 h. In a few lines:
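S3 HeLa stable clones carrying a lamin A-EGFP splicing minigene plus DsRed2 were seeded at 600 cells/well in Opti-MEM with 2% FBS, pin-dosed and incubated 48 h at 37°C. Acumen cytometry (488 nm) gave the GFP/RFP total-intensity ratio.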
Background: Quantitative high-throughput screening tests each substance at several concentrations.

The mark [1] stands for this setting: measured here: GFP splicing reporter channel.
Setting [2] is: measured here: RFP viability control channel.

For orientation: AC50 means the concentration at which the activity in the assay is half-maximal.

This is one part of the list. These are further read-outs of the screen, such as a control signal, another cell line or another target. No call is given for them. Most of these compounds were active or inconclusive in the main read-out, so they are no random draw. The note in brackets gives the kind of curve behind each potency; many fits are weak.

As for `CCn1cc(C(=O)O)c(=O)c2cc(F)c(N3CCN(C(=S)NC(=O)c4ccc(Br)cc4)CC3)cc21`, under setting [1], the AC50 was 0.891 µM [falling, full curve, poor fit]. As to `Cc1ccc(C(=O)C2=C(O)C(=O)N(Cc3ccccc3)C2c2cccnc2)o1` (stereo not drawn), under setting [2], the AC50 was 11.2 µM [rising, partial curve]. The same measure, in the same setting: the figure for `Cc1cc(C(=O)NCCCn2ccnc2)sc1-c1ccccc1` is 0.0794 µM [rising, full curve]; for `N/C(=N\OC(=O)c1cc(Br)ccc1Cl)c1cccnc1` it is 11.2 µM [falling, partial curve, poor fit]. Same read-out and setting: the figure for `CC(C)(C)NC(=O)CSc1ncnc2c1nnn2Cc1ccccc1Cl` is 35.5 µM [falling, single point]. As to `O=C(CN1C(=O)C2C3C=CC(C3)C2C1=O)Nc1nc(SCc2ccc(Cl)cc2)n[nH]1` (stereo not drawn), the AC50 under setting [2] was 22.4 µM [rising, single point]. With `O=C(Nc1nc(-c2ccc(-c3ccccc3)cc2)cs1)C1CCCO1` (stereo not drawn), the AC50 under setting [2] was 12.6 µM [rising, partial curve, poor fit]. As to `COc1ccc(-c2nc(Cn3c(SCc4ccccc4F)nc4cccnc43)c(C)o2)cc1`, the AC50 under setting [2] was 35.5 µM [rising, partial curve, poor fit]. For `Cc1cccc2sc(N(Cc3cccnc3)C(=O)C3COc4ccccc4O3)nc12` (stereo not drawn), the AC50 under setting [1] was 0.00316 µM [falling, full curve, poor fit]. Regarding `COC(=O)c1c(NC(=O)c2ccc(S(=O)(=O)N(C)C3CCCCC3)cc2)sc2c1CCN(C)C2`, under setting [2], the AC50 was 11.2 µM [falling, single point]. `O=c1cc(NS(=O)(=O)c2ccccc2)nc(SCc2ccc(Cl)cc2)[nH]1`: the concentration at half-maximal activity (AC50) under setting [2] is 35.5 µM [rising, single point]. Regarding `COc1ccc(CNCC(O)(c2ccc(Cl)cc2)c2ccc(Cl)cc2)cc1`, the AC50 runs as follows: under setting [1], 12.6 µM [falling, partial curve]; under setting [2], 22.4 µM [falling, partial curve]. Consider `COc1c(C)cc(C(=O)C2CCCN(C(=O)c3ccoc3)C2)cc1C` (stereo not drawn), for which the AC50 under setting [1] was 10 µM [falling, partial curve]. With `CC(=O)Nc1ccc(NC(=O)c2cc(-c3ccc4c(c3)OCCO4)on2)cc1`, the AC50 under setting [2] was 0.316 µM [falling, full curve, poor fit]. As to `O=C(c1ccccc1)[C@@H]1[C@@H](C(=O)c2ccc(F)cc2)[C@@]2(C(=O)Nc3ccccc32)[C@H]2c3ccccc3C=CN12`, under setting [2], the AC50 is 22.4 µM [rising, single point]. As to `CC1CNCCN1S(=O)(=O)c1cccc2cnccc12` (stereo not drawn), the AC50 is 35.5 µM [falling, single point] under setting [1] and 25.1 µM [falling, partial curve] under setting [2].
